Protein sequences, listed by entry. Tags and fused reporters are not part of them.
UniProt P60953: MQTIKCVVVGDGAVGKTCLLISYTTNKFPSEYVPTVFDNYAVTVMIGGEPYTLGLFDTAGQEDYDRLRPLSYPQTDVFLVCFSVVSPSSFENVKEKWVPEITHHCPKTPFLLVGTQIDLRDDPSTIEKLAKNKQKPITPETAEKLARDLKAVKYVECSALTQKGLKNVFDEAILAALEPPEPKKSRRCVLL
UniProt P46940: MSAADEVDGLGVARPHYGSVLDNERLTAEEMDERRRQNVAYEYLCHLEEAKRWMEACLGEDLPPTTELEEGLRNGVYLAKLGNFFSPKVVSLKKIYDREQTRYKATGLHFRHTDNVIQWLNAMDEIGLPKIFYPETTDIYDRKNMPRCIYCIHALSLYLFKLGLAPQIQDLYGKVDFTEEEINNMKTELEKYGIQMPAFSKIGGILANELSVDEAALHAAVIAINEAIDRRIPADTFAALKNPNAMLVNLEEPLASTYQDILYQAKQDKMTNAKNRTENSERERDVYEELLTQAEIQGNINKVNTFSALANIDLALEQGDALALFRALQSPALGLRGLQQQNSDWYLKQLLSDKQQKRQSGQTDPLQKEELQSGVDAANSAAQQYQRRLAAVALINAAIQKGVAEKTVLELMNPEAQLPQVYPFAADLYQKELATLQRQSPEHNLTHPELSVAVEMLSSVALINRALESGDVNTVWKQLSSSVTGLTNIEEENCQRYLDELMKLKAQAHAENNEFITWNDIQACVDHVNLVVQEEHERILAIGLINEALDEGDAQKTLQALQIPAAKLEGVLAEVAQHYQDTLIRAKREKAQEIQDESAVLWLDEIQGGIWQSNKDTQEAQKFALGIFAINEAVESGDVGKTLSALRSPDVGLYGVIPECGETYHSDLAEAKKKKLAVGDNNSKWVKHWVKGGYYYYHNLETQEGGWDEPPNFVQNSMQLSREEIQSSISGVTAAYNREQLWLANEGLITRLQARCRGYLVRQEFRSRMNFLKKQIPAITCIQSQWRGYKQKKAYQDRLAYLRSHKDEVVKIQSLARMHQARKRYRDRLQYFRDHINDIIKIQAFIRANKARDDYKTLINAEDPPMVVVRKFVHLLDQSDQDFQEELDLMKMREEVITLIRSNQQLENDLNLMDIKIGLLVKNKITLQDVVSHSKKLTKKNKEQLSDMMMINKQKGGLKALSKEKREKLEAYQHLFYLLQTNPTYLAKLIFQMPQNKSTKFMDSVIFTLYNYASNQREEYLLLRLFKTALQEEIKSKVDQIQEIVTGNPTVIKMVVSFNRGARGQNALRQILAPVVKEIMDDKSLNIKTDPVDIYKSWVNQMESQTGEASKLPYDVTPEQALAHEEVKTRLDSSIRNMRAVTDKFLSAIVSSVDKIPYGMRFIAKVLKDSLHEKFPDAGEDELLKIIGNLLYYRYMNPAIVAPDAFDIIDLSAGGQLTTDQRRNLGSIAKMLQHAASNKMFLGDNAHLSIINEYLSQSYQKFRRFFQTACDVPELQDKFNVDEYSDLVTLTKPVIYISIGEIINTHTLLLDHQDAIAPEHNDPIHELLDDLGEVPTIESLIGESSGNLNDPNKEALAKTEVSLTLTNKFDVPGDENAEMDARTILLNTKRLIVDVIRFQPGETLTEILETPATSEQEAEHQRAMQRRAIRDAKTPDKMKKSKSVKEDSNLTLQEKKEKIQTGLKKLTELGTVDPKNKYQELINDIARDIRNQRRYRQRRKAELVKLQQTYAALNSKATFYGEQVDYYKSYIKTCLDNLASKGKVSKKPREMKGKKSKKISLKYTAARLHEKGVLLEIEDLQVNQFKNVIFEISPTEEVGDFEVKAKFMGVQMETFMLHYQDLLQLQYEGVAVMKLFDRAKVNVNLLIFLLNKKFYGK
UniProt Q15811: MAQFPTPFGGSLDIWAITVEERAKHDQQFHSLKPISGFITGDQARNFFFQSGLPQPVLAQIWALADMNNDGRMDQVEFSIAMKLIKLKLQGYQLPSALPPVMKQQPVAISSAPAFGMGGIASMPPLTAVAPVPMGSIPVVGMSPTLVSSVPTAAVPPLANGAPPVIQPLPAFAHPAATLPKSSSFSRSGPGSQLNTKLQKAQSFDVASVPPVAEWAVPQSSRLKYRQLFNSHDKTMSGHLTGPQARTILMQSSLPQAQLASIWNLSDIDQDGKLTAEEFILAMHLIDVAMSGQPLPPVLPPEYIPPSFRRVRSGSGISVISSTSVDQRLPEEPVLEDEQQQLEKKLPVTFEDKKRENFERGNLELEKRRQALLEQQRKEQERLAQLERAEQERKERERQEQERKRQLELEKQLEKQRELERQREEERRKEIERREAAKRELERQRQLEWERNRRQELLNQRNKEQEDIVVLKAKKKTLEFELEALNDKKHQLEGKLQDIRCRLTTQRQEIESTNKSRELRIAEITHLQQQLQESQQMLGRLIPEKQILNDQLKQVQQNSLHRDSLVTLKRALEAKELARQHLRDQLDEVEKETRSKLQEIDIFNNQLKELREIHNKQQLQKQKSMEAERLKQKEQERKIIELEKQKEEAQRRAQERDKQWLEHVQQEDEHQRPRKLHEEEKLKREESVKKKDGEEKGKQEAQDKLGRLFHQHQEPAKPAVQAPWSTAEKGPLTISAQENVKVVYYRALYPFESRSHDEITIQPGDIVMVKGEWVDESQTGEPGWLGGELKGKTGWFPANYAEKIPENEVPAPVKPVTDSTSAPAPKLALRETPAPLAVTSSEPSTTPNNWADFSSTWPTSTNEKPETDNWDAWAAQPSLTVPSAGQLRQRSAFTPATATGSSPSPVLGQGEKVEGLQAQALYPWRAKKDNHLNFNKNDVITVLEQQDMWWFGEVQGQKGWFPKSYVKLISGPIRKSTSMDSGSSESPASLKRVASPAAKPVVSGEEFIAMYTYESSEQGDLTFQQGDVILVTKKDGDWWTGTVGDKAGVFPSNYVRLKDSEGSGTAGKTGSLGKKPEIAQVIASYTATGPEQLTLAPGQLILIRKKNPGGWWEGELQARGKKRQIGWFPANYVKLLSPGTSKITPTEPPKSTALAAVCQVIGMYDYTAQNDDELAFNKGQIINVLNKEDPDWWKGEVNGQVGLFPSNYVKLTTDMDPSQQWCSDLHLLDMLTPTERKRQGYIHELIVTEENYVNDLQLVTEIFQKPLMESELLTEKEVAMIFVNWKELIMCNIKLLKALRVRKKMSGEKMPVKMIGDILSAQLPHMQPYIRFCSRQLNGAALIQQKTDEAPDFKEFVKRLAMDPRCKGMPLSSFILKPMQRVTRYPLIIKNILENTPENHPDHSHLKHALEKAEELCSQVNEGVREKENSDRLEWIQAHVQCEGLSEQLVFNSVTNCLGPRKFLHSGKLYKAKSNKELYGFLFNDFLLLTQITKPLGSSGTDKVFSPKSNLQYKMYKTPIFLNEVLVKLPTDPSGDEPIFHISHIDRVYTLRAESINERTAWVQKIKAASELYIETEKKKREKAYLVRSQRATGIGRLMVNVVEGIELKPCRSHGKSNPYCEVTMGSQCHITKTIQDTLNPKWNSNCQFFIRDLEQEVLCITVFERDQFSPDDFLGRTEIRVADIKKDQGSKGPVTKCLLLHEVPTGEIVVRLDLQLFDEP

According to PMC12622526:

Target: COA4‐Flag (human cytochrome c oxidase assembly factor 4), transfected in A549 cells (human) (UniProt Q9NYJ1)
Assay: affinity purification with mass spectrometry; A549 cells transfected with Flag‐COA4 for 48 h; anti‐FLAG immunoprecipitation (Pierce Co‐IP Kit), SDS‐PAGE bands analysed by LC‐MS/MS

binding | Substance
binds | CDC42, endogenous (from UniProt P60953 1-191)
binds | IQGAP1 (from UniProt P46940 1-1657)
binds | ITSN1 (from UniProt Q15811 1-1721)

No constants are given. Whether binding was seen depends on the method and setting. Binding seen in cells or lysates may run through a third protein. A yes stands for co-enrichment or nearness to the bait. Other partners may have been found. Sequences can lack the tags named with a protein.
